# Measured values taken from the supplement of paper PMC8728848.
# Some of the results follow.
# B1: ArathEULS3 TAP (Arabidopsis thaliana) (protein)
# chain: IDENLYFQGGSMDEKTTGWRGGHVVEGLAGELEQLRARLEHHPQGQREPGGGGSLEITSLYKKAGFMEHHHQHHRHHQRDDGEDDRQSFGVPPPHVDAPPQPHGLYQSQPHFDPYAPTPQAPAPYRSETQFEPHAPPPYRSEPYFETPAPPPSFGHVSHVGHQSPNESYPPEHHRYGGYQQPSNSLLESHGDHSGVTHVAHHSSNQPQSSSGVYHKPDENRLPDNLAGLAGRATVKVYSKAEPNYNLTIRDGKVILAPADPSDEAQHWYKDEKYSTKVKDADGHPCFALVNKATGEAMKHSVGATHPVHLIRYVPDKLDESVLWTESKDFGDGYRTIRMVNNTRLNVDAYHGDSKSGGVRDGTTIVLWDWNKGDNQLWKIFPF
# Columns and labels:
# Assay in all cases: glycan array binding signal (z-score within array); higher = stronger binding
# Details in all cases: glycan notation: IUPAC condensed, linker removed
# [1] = biological target: Neu5Ac(a2-6)Gal(b1-4)GlcNAc(b1-3)Gal(b1-4)GlcNAc(b1-3)GalNAc
# Procedure, shortened: (§1)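 Glycan array data came from 3228 arrays in the Consortium for Functional Glycomics database, and only arrays with an available protein sequence were kept. Glycan names were put into IUPAC-condensed notation, and columns mapping to the same glycan were averaged. The binding signal is a within-array Z-score, averaged across arrays of one protein sequence run at different concentrations or buffers and across linkers. A negative Z-score can be read as non-binding.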
# [2] = biological target: Neu5Ac(a2-6)Gal(b1-4)GlcNAc(b1-3)Gal(b1-4)GlcNAc(b1-3)[Neu5Ac(a2-6)Gal(b1-4)GlcNAc(b1-3)Gal(b1-4)GlcNAc(b1-6)]GalNAc
# Procedure, shortened: as §1
# [3] = biological target: Neu5Ac(a2-6)Gal(b1-4)GlcNAc(b1-3)Gal(b1-4)GlcNAc(b1-6)[Gal(b1-3)]GalNAc
# Procedure, shortened: as §1
# [4] = biological target: Neu5Ac(a2-6)Gal(b1-4)GlcNAc(b1-3)Gal(b1-4)[Fuc(a1-3)]GlcNAc(b1-3)Gal(b1-4)[Fuc(a1-3)]GlcNAc
# Procedure, shortened: as §1
# [5] = biological target: Neu5Ac(a2-6)Gal(b1-4)GlcNAc(b1-3)GalNAc
# Procedure, shortened: as §1
# [6] = biological target: Neu5Ac(a2-6)Gal(b1-4)GlcNAc(b1-3)[Neu5Ac(a2-6)Gal(b1-4)GlcNAc(b1-6)]GalNAc
# Procedure, shortened: as §1
# [7] = biological target: Neu5Ac(a2-6)Gal(b1-4)GlcNAc(b1-6)GalNAc
# Procedure, shortened: as §1
# [8] = biological target: Neu5Ac(a2-6)Gal(b1-4)GlcNAc(b1-6)[Gal(b1-3)GlcNAc(b1-3)]Gal(b1-4)Glc
# Procedure, shortened: as §1
# [9] = biological target: Neu5Ac(a2-6)Gal(b1-4)GlcNAc(b1-6)[Gal(b1-3)]GalNAc
# Procedure, shortened: as §1
# [10] = biological target: Neu5Ac(a2-6)Gal(b1-4)GlcNAc6S
# Procedure, shortened: as §1
# Neu5Ac(a2-6)GalNAc = biological target: Neu5Ac(a2-6)GalNAc
# Procedure, shortened: as §1
# [11] = biological target: Neu5Ac(a2-6)GalNAc(b1-4)GlcNAc
# Procedure, shortened: as §1
# [12] = biological target: Neu5Ac(a2-6)GalNAc(b1-4)GlcNAc6S
# Procedure, shortened: as §1
# [13] = biological target: Neu5Ac(a2-6)GlcNAc(b1-4)GlcNAc
# Procedure, shortened: as §1
# [14] = biological target: Neu5Ac(a2-6)GlcNAc(b1-4)GlcNAc(b1-4)GlcNAc
# Procedure, shortened: as §1
# Neu5Ac(a2-8)Neu5Ac = biological target: Neu5Ac(a2-8)Neu5Ac
# Procedure, shortened: as §1
# [15] = biological target: Neu5Ac(a2-8)Neu5Ac(a2-3)Gal(b1-3)GalNAc(b1-4)[Neu5Ac(a2-3)]Gal(b1-4)Glc
# Procedure, shortened: as §1
# [16] = biological target: Neu5Ac(a2-8)Neu5Ac(a2-3)Gal(b1-3)GalNAc(b1-4)[Neu5Ac(a2-8)Neu5Ac(a2-3)]Gal(b1-4)Glc
# Procedure, shortened: as §1
# [17] = biological target: Neu5Ac(a2-8)Neu5Ac(a2-3)Gal(b1-4)Glc
# Procedure, shortened: as §1
# [18] = biological target: Neu5Ac(a2-8)Neu5Ac(a2-3)Gal(b1-4)GlcNAc
# Procedure, shortened: as §1
# [19] = biological target: Neu5Ac(a2-8)Neu5Ac(a2-3)[Gal(b1-3)GalNAc(b1-4)]Gal(b1-4)Glc
# Procedure, shortened: as §1
# [20] = biological target: Neu5Ac(a2-8)Neu5Ac(a2-3)[GalNAc(b1-4)]Gal(b1-4)Glc
# Procedure, shortened: as §1
# [21] = biological target: Neu5Ac(a2-8)Neu5Ac(a2-8)Neu5Ac
# Procedure, shortened: as §1
# [22] = biological target: Neu5Ac(a2-8)Neu5Ac(a2-8)Neu5Ac(a2-3)Gal(b1-4)Glc
# Procedure, shortened: as §1
# [23] = biological target: Neu5Ac(a2-8)Neu5Ac(a2-8)Neu5Ac(a2-3)[Gal(b1-3)GalNAc(b1-4)]Gal(b1-4)Glc
# Procedure, shortened: as §1
# [24] = biological target: Neu5Ac(a2-8)Neu5Ac(a2-8)Neu5Ac(a2-3)[GalNAc(b1-4)]Gal(b1-4)Glc
# Procedure, shortened: as §1
# [25] = biological target: Neu5Ac(a2-8)Neu5Ac(a2-8)Neu5Ac(a2-8)Neu5Ac(a2-3)[GalNAc(b1-4)]Gal(b1-4)Glc
# Procedure, shortened: as §1
# [26] = biological target: Neu5Ac(a2-8)Neu5Gc(a2-3)Gal(b1-4)GlcNAc
# Procedure, shortened: as §1
# [27] = biological target: Neu5Ac(b2-6)Gal(b1-4)GlcNAc
# Procedure, shortened: as §1
# Neu5Ac(b2-6)GalNAc = biological target: Neu5Ac(b2-6)GalNAc
# Procedure, shortened: as §1
# [28] = biological target: Neu5Ac9Ac(a2-3)Gal(b1-3)GlcNAc
# Procedure, shortened: as §1
# [29] = biological target: Neu5Ac9Ac(a2-3)Gal(b1-4)GlcNAc
# Procedure, shortened: as §1
# [30] = biological target: Neu5Ac9Ac(a2-6)Gal(b1-4)GlcNAc
# Procedure, shortened: as §1
# [31] = biological target: Neu5Gc(a2-3)Gal(b1-3)GlcNAc
# Procedure, shortened: as §1
# [32] = biological target: Neu5Gc(a2-3)Gal(b1-3)[Fuc(a1-4)]GlcNAc
# Procedure, shortened: as §1
# Neu5Gc(a2-3)Gal(b1-4)Glc = biological target: Neu5Gc(a2-3)Gal(b1-4)Glc
# Procedure, shortened: as §1
# [33] = biological target: Neu5Gc(a2-3)Gal(b1-4)GlcNAc
# Procedure, shortened: as §1
# [34] = biological target: Neu5Gc(a2-3)Gal(b1-4)GlcNAc(b1-3)Gal(b1-4)GlcNAc(b1-2)Man(a1-3)[Neu5Gc(a2-3)Gal(b1-4)GlcNAc(b1-3)Gal(b1-4)GlcNAc(b1-2)Man(a1-6)]Man(b1-4)GlcNAc(b1-4)GlcNAc
# Procedure, shortened: as §1
# [35] = biological target: Neu5Gc(a2-3)Gal(b1-4)[Fuc(a1-3)]GlcNAc
# Procedure, shortened: as §1
# [36] = biological target: Neu5Gc(a2-6)Gal(b1-4)GlcNAc
# Procedure, shortened: as §1
# Neu5Gc(a2-6)GalNAc = biological target: Neu5Gc(a2-6)GalNAc
# Procedure, shortened: as §1
# [37] = biological target: Neu5Gc(a2-8)Neu5Ac(a2-3)Gal(b1-4)GlcNAc
# Procedure, shortened: as §1
# [38] = biological target: Neu5Gc(a2-8)Neu5Gc(a2-3)Gal(b1-4)GlcNAc
# Procedure, shortened: as §1
# [39] = biological target: Neu5Gc(a2-8)Neu5Gc(a2-3)Gal(b1-4)GlcNAc(b1-3)Gal(b1-4)GlcNAc
# Procedure, shortened: as §1
# [40] = biological target: Neu5Gc(a2-8)Neu5Gc(a2-6)Gal(b1-4)GlcNAc
# Procedure, shortened: as §1
# [41] = biological target: Neu5Gc(b2-6)Gal(b1-4)GlcNAc
# Procedure, shortened: as §1
binder,measurement,setting,value
B1,glycan array binding signal (z-score),[1],-0.472
same,glycan array binding signal (z-score),[2],1.05
same,glycan array binding signal (z-score),[3],-0.634
same,glycan array binding signal (z-score),[4],-0.511
same,glycan array binding signal (z-score),[5],0.12
same,glycan array binding signal (z-score),[6],0.364
same,glycan array binding signal (z-score),[7],-0.914
same,glycan array binding signal (z-score),[8],0.658
same,glycan array binding signal (z-score),[9],0.429
same,glycan array binding signal (z-score),[10],-0.553
same,glycan array binding signal (z-score),Neu5Ac(a2-6)GalNAc,-0.607
same,glycan array binding signal (z-score),[11],0.004
same,glycan array binding signal (z-score),[12],-0.482
same,glycan array binding signal (z-score),[13],1.18
same,glycan array binding signal (z-score),[14],0.178
same,glycan array binding signal (z-score),Neu5Ac(a2-8)Neu5Ac,-0.635
same,glycan array binding signal (z-score),[15],-0.071
same,glycan array binding signal (z-score),[16],2.9
same,glycan array binding signal (z-score),[17],-2.44
same,glycan array binding signal (z-score),[18],-0.433
same,glycan array binding signal (z-score),[19],2
same,glycan array binding signal (z-score),[20],-0.243
same,glycan array binding signal (z-score),[21],-0.158
same,glycan array binding signal (z-score),[22],-0.143
same,glycan array binding signal (z-score),[23],-0.442
same,glycan array binding signal (z-score),[24],-0.112
same,glycan array binding signal (z-score),[25],0.135
same,glycan array binding signal (z-score),[26],-0.359
same,glycan array binding signal (z-score),[27],-0.632
same,glycan array binding signal (z-score),Neu5Ac(b2-6)GalNAc,-0.325
same,glycan array binding signal (z-score),[28],1.75
same,glycan array binding signal (z-score),[29],-0.138
same,glycan array binding signal (z-score),[30],0.744
same,glycan array binding signal (z-score),[31],0.655
same,glycan array binding signal (z-score),[32],-0.71
same,glycan array binding signal (z-score),Neu5Gc(a2-3)Gal(b1-4)Glc,-0.271
same,glycan array binding signal (z-score),[33],-1.29
same,glycan array binding signal (z-score),[34],0.599
same,glycan array binding signal (z-score),[35],1.15
same,glycan array binding signal (z-score),[36],0.214
same,glycan array binding signal (z-score),Neu5Gc(a2-6)GalNAc,-0.53
same,glycan array binding signal (z-score),[37],-0.325
same,glycan array binding signal (z-score),[38],0.412
same,glycan array binding signal (z-score),[39],0.691
same,glycan array binding signal (z-score),[40],-0.043
same,glycan array binding signal (z-score),[41],0.874

# Some of the entries so far, with tabs:
binder	measurement	setting	value
B1	glycan array binding signal (z-score)	[18]	-0.433
same	glycan array binding signal (z-score)	[19]	2
